Values joined by “and” are separate entries in the source; they are usually repeats but may differ in a detail not shown here. Identical values can stand only once. Screen size: about 580,000 compounds; about 6,100 (1.1%) were called active. The shares of active, inactive and inconclusive entries below differ from those in the screen. The call rests on the fitted dose curve; in most records, active means well fitted inhibition curve with a large enough effect; inconclusive means small, poorly fitted or top-dose-only effect, or another doubt; inactive means no such curve, though single readings can be large or run the other way. Potencies beside an inconclusive call are fits to weak or partial responses and may not hold up.
Biological target: Polyunsaturated fatty acid lipoxygenase ALOX12 (Homo sapiens) (UniProt P18054)
Experiment: Primary qHTS assay for inhibitors of human arachidonate 12S-lipoxygenase (ALOX12): Round 2
Settings: purified 12hLO, xylenol orange hydroperoxide absorbance; series mostly up to 108 µM
Method in brief: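 Purified human 12hLO at 150 nM in 25 mM Hepes, 0.01% Triton X-100, pH 7.0, preincubated 15 min at room temperature with compound. Reaction started with 40 uM arachidonic acid, 30 min at room temperature. Hydroperoxide measured by Fe-xylenol orange, 573/405 nm absorbance ratio.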
Potency means the concentration at half of the fitted maximal effect.

The chains behind the UniProt entries cited, without tags or fusion partners.
UniProt P18054, whole entry, looked up: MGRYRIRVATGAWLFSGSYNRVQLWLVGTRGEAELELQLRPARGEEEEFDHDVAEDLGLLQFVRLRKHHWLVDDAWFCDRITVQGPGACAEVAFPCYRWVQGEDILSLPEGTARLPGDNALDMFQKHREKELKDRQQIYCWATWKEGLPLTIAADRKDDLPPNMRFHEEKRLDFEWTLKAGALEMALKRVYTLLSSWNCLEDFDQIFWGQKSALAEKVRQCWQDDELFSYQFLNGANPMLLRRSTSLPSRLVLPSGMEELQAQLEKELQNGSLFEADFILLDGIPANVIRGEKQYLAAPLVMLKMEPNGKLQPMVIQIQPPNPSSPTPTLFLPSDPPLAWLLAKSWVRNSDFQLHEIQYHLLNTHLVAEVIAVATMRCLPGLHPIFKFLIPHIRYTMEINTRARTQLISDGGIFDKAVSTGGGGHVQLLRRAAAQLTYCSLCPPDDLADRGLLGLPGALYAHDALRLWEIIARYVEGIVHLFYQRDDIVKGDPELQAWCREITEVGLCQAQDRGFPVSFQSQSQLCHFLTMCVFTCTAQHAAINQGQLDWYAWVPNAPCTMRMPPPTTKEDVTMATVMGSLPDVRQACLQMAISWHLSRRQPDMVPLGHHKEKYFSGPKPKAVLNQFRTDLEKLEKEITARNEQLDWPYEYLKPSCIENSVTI

Structure (SMILES)	Potency
COc1ccc(CNc2ncnc3ccc(-c4cccnc4)cc23)c(OC)c1	inconclusive: 39.8 µM [inhibitor, partial curve, poor fit]
O=C(Cn1nc2n(c1=O)CCCC2)Nc1ccc(C(F)(F)F)cc1	inactive
CNC(=O)[C@H]1C[C@H](Oc2ccccc2)CN1C(=O)c1ccc(Cc2c(C)noc2C)o1	inconclusive: 4.47 µM [inhibitor, full curve, poor fit]
CCOc1ccc(OCCOCCN2CCc3ccccc3C2)cc1	inconclusive: 0.501 µM [inhibitor, full curve]
CC1=Nc2cc(C(=O)N3CCC(C)CC3)ccc2Sc2ccc(Cl)cc21	inconclusive: 31.6 µM [inhibitor, partial curve, poor fit]
S=c1[nH]ccn1CCc1ccccc1	inconclusive: 44.7 µM [inhibitor, partial curve, poor fit]
O=Cc1ccc(-c2cc(C(F)(F)F)ccc2Cl)o1	inconclusive: 63.1 µM [inhibitor, partial curve, poor fit]
CCOC(=O)c1[nH]c2ccccc2c1NC(=S)Nc1cccc(C)c1	inconclusive: 39.8 µM [inhibitor, partial curve, poor fit]
CC(C(=O)NC1CC1)N1CCC(c2cc3ccccc3[nH]2)CC1 (stereo not given)	inactive
C=C(C)CNC(=S)N/N=C/c1ccco1	inactive
Cc1cccc(NC(=O)NCC2CCN(CCc3ccc(F)cc3)CC2)c1C	active: 35.5 µM
CCCOc1ccc(C2C(=O)N(C3CCC(C)CC3)CC(=O)N2Cc2cccc(OC)c2)cc1OC (stereo not given)	inconclusive: 50.1 µM [inhibitor, partial curve, poor fit]
CCOc1ccccc1NC(=O)CSc1nc2ccsc2c(=O)[nH]1	inactive
Cc1ccc(N(C(C)C(=O)Nc2ccc3c(c2)OCO3)S(C)(=O)=O)cc1 (stereo not given)	inactive
O=C(CCCOC(=O)c1ccc(O)cc1O)c1ccccc1	inconclusive: 39.8 µM [inhibitor, partial curve, poor fit]
COCc1ccc(-c2c(-c3ccsc3)sc3ccccc23)cc1	inactive
CCC(CC)C(NC(=O)Cc1ccccc1F)c1cccs1 (stereo not given)	inconclusive: 5.62 µM [inhibitor, partial curve, poor fit]
NS(=O)(=O)c1ccc(N/N=C/c2ccccc2C(=O)O)c([N+](=O)[O-])c1	inactive
CN(C)C(=O)c1ccc(-c2nc(NCc3ccccc3)c3ccccc3n2)cc1	inconclusive: 14.1 µM [inhibitor, full curve, poor fit]
COc1ccc(CC(=O)NC(C)c2nnc(SCC(=O)c3ccc(F)cc3)n2C)cc1 (stereo not given)	inconclusive: 50.1 µM [inhibitor, partial curve, poor fit]

Structure (SMILES)	Potency
Cc1ccc(CC2C(=O)N(c3cc(Cl)ccn3)C(=O)C2C)cc1 (stereo not given)	inconclusive: 44.7 µM [inhibitor, partial curve, poor fit]
CCn1cnc2c1c(=O)n(CC(=O)N(C)Cc1cccs1)c(=O)n2Cc1ccccc1	inconclusive: 89.1 µM [inhibitor, partial curve, poor fit]
CCn1nc(CC(=O)Nc2ccc(-n3cnnn3)c(OC)c2)c2ccccc2c1=O	inactive
O=C(NCCOc1ccccc1)C1CNCCO1 (stereo not given)	inconclusive: 56.2 µM [inhibitor, partial curve, poor fit]
CCCCn1c(N)c(N(CCC(C)C)C(=O)c2cc(Cl)nc3ccccc23)c(=O)[nH]c1=O	inactive
C=CC[C@@H](CC(=O)N[C@H](CO)Cc1ccccc1)C(=O)N[C@@H](COC(=O)[C@@H](CC=C)CC(=O)OC(C)(C)C)Cc1ccccc1	inconclusive: 112 µM [inhibitor, single point]
Cc1cc2c(cc1C)N(C(=O)CSc1nncn1C)C(C)(C)c1ssc(=S)c1-2	inconclusive: 50.1 µM [inhibitor, partial curve, poor fit]
CCCSc1nc(-c2ccccc2)[nH]c1S(=O)(=O)c1ccc(C)cc1	inconclusive: 56.2 µM [inhibitor, partial curve, poor fit]
Cc1c(NC(=O)c2cn3ccccc3n2)cccc1-n1cnnn1	inconclusive: 50.1 µM [inhibitor, partial curve, poor fit]
CN(CCc1ccccc1)C(=O)c1ccc(NC(=O)Cc2cccc(NC(=O)C3CCN(C(=O)C4CCC4)CC3)c2)cc1	inactive
Cc1ccc(-c2c(C(=O)NCCc3ccccc3)oc(=O)c3ccccc23)cc1	inconclusive: 141 µM [inhibitor, partial curve, poor fit]
O=C(Cc1cccc(F)c1)N1CCN(c2cc(C(F)(F)F)ncn2)CC1	inactive
COc1ccc(S(=O)(=O)N2CCCCCC2)cc1NC(=O)CN1C(=O)CNC1=O	inconclusive: 44.7 µM [inhibitor, partial curve, poor fit]
COc1ccc2cc(-c3cc(C(=O)O)c4ccccc4n3)ccc2c1	inconclusive: 28.2 µM [inhibitor, partial curve, poor fit] and inconclusive: 44.7 µM [inhibitor, partial curve, poor fit]
COc1ccc(Cl)cc1N(C(=O)c1ccco1)C(C(=O)NC1CCCC1)c1ccco1 (stereo not given)	inconclusive: 8.91 µM [inhibitor, partial curve, poor fit]
C/C(=N\NC1=NCCN1)c1ccccc1	inconclusive: 14.1 µM [inhibitor, full curve, poor fit]
CCCCCCCCOC(=O)CCc1c(C)[nH]c(=S)[nH]c1=O	inconclusive: 39.8 µM [inhibitor, single point]
C[C@@H]1CCCCO[C@H](CN(C)C(=O)Nc2ccc3c(c2)OCO3)[C@@H](C)CN([C@H](C)CO)C(=O)c2cc(NS(=O)(=O)c3ccc(F)cc3)ccc2O1	inconclusive: 50.1 µM [inhibitor, partial curve, poor fit]
CCOc1ccc(C(=O)NC(=S)Nc2ccccc2N2CCOCC2)cc1Br	active: 25.1 µM
CC[C@H](C)[C@H](NC(=O)CNC(=O)COc1cc2c(c3oc(=O)cc(C)c13)CCC(C)(C)O2)C(=O)O	inactive
